Assay results as given in patent publication US6454951B1, “Photosensitive composition” (priority 1996, dated 2002).

Test system: spheroplasts or protoplasts
Experiment: Distribution of porphyrin between spheroplasts or protoplasts and outer cell wall
Type: cell-based
Details: in words

Meso-di(N-methyl-4-pyridyl)diphenylporphine [Di(4-N-MPy)Ph2P]
Effect of washing operations on porphyrin at endocellular / binding sites: not noticeably decreased by washing operations
